Measured data: PubChem BioAssay AID652243 (Drosophila RNAi Screening Center, 2013)

Screen: 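Knock-downs that decrease or increase androgen receptor reporter signal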 (primary screen)
System: Drosophila S2R+ cells
Reagent: long dsRNA against Drosophila genes
Time to read-out: 72 h (48 h, then 24 h hormone)
Challenge: synthetic androgen R1881 at 10 nM for 24 h
Detection: 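Firefly light from an androgen-responsive reporter and Renilla control light per well, raw and unnormalised, for each of two replicates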
Reading the numbers: firefly reporter light: higher = more light from androgen-responsive reporter; Renilla control light: higher = more constitutive control signal (cell number, transfection)
Call rule: 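Hit when the log firefly-to-Renilla ratio dropped or increased by a fixed fold versus the mean of GFP or LacZ controls across duplicate plates; lowering cut given as 1.5 and as 3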
Meaning of the calls: active = hit: reporter lowered or raised; inactive = no hit
In all, the deposit lists about 24,000 reagents; below is a random part of those with a known target gene and a result. Of all reagents, 246 (1%) got an active call. 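Plates not normalised; calls are printed but the firefly/Renilla ratio behind them is not deposited; fold cut for lowering reported inconsistently.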 The raw values are shown without normalisation. A plus sign joins genes that one reagent is predicted to hit. The record does not give: the amount of reagent.

no.	gene	dsRNA	firefly reporter light, replicate 1	firefly reporter light, replicate 2	Renilla control light, replicate 1	Renilla control light, replicate 2	outcome
1	CG43347	DRSC23007	7.17e5	7.07e5	1.91e6	2.00e6	inactive
2	CG43347	DRSC23170	6.77e5	5.78e5	1.16e6	8.09e5	inactive
3	CG43347	DRSC25782	1.84e5	3.29e5	7.05e5	5.45e5	inactive
4	CG43347	DRSC29367	1.12e6	7.12e5	1.81e6	1.81e6	inactive
5	CG11168	DRSC14292	55830	1.16e5	4.89e5	5.44e5	inactive
6	Ugalt	DRSC18467	1.43e5	2.58e5	2.49e6	2.79e6	inactive
7	CG18304	DRSC02664	1.52e5	1.97e5	2.16e6	1.98e6	inactive
8	CG18304	DRSC28389	6.19e5	7.52e5	1.97e6	2.36e6	inactive
9	CG18304	DRSC39011	1.18e6	1.17e6	1.56e6	1.77e6	inactive
10	tws	DRSC12767	1.07e5	1.08e5	1.57e5	1.53e5	inactive
11	tws	DRSC17092	84506	1.54e5	2.59e5	3.61e5	inactive
12	tws	DRSC27776	4.39e5	2.72e5	5.48e5	7.27e5	inactive
13	tws	DRSC37011					inactive
14	CG9444	DRSC16493	93326	95878	1.13e6	1.34e6	inactive
15	Pi3K92E	DRSC16788	1.23e5	90402	8.26e5	8.75e5	inactive
16	Pi3K92E	DRSC36697					inactive
17	Pi3K92E	DRSC36698					inactive
18	mthl4	DRSC06998	1.73e5	1.45e5	3.22e6	3.22e6	inactive
19	CG1663	DRSC06613	4.16e5	2.75e5	2.81e6	2.51e6	inactive
20	CG1663	DRSC22488	4.03e5	6.57e5	1.19e6	1.86e6	inactive
21	CG1663	DRSC28315	3.13e5	1.08e6	9.10e5	1.70e6	inactive
22	Gr93d	DRSC21941	5.77e5	5.92e5	2.03e6	2.05e6	inactive
23	CG17919	DRSC12571	19985	73736	2.93e5	2.96e5	inactive
24	CG17919	DRSC27860	4.39e5	2.37e5	2.19e6	1.20e6	inactive
25	Gr43a	DRSC06658	4.28e5	3.31e5	1.74e6	1.67e6	inactive
26	Pbp45	DRSC16509	1.95e5	2.61e5	2.23e6	3.55e6	inactive
27	uzip	DRSC04722	6.70e5	6.90e5	1.45e6	1.52e6	inactive
28	uzip	DRSC30045	6.22e5	6.46e5	1.24e6	1.36e6	inactive
29	knon	DRSC07049	51407	74030	9.74e5	9.74e5	inactive
30	CG16890 + p38b	DRSC36755					inactive
31	zpg	DRSC09702	2.41e5	2.37e5	2.78e6	2.81e6	inactive
32	zpg	DRSC26258	2.83e5	3.45e5	6.00e5	6.11e5	inactive
33	CG6071	DRSC10579	1.42e5	1.49e5	1.14e6	1.18e6	inactive
34	sut2	DRSC07701	1.21e6	5.27e5	1.67e6	9.22e5	inactive
35	CG17580	DRSC06683	4.18e5	2.95e5	1.28e6	1.96e6	inactive
36	CG17580	DRSC27009	4.54e5	3.10e5	7.98e5	6.62e5	inactive
37	Pde9	DRSC19746	4.36e5	4.71e5	4.05e6	3.64e6	inactive
38	Pde9	DRSC19874	7.16e5	6.93e5	3.95e6	3.69e6	inactive
39	Pde9	DRSC19875	5.78e5	3.54e5	4.26e6	3.41e6	inactive
40	Pde9	DRSC19876	5.34e5	4.45e5	3.24e6	3.83e6	inactive
41	Pde9	DRSC25304	5.66e5	9.14e5	1.08e6	1.15e6	inactive
42	CG1902	DRSC06798	1.17e6	6.30e5	2.58e6	1.60e6	inactive
43	CG15373	DRSC19663	7.71e5	7.66e5	4.08e6	2.25e6	inactive
44	CG17841	DRSC17737	2.60e5	2.60e5	9.08e5	7.89e5	inactive
45	CG17841	DRSC28821	4.90e5	4.99e5	1.23e6	1.46e6	inactive
46	CG9154	DRSC03150	1.49e6	1.32e6	2.87e6	3.10e6	inactive
47	gpp	DRSC12515	30811	47181	9.10e5	1.15e6	inactive
48	gpp	DRSC28193	7.10e5	6.71e5	2.01e6	1.43e6	inactive
49	CG10958	DRSC17768	1.18e5	74079	4.55e5	3.68e5	inactive
50	CG10958	DRSC29583	4.55e5	5.43e5	9.79e5	9.79e5	inactive
51	CG9877	DRSC04587	4.39e5	4.97e5	2.71e6	2.05e6	inactive
52	CG9877	DRSC25386	1.17e6	1.19e6	1.23e6	1.57e6	inactive
53	CG32413	DRSC21591	5.81e5	5.38e5	2.74e6	2.83e6	inactive
54	ppk31	DRSC13811	27299	79190	1.02e5	1.34e5	inactive
55	ppk31	DRSC25391	5.93e5	9.62e5	6.99e5	1.04e6	inactive
56	Tsp42Eg	DRSC06112	1.01e6	8.21e5	2.07e6	2.60e6	inactive
57	Cpr62Bc	DRSC08545	1.39e5	1.81e5	2.15e6	2.59e6	inactive
58	Cpr62Bc	DRSC26471	4.09e5	2.04e5	4.15e5	3.48e5	inactive

Reprinted from the listing (8 entries):
no.	gene	dsRNA	firefly reporter light, replicate 1	firefly reporter light, replicate 2	Renilla control light, replicate 1	Renilla control light, replicate 2	outcome
5	CG11168	DRSC14292	55830	1.16e5	4.89e5	5.44e5	inactive
6	Ugalt	DRSC18467	1.43e5	2.58e5	2.49e6	2.79e6	inactive
7	CG18304	DRSC02664	1.52e5	1.97e5	2.16e6	1.98e6	inactive
8	CG18304	DRSC28389	6.19e5	7.52e5	1.97e6	2.36e6	inactive
9	CG18304	DRSC39011	1.18e6	1.17e6	1.56e6	1.77e6	inactive
10	tws	DRSC12767	1.07e5	1.08e5	1.57e5	1.53e5	inactive
11	tws	DRSC17092	84506	1.54e5	2.59e5	3.61e5	inactive
12	tws	DRSC27776	4.39e5	2.72e5	5.48e5	7.27e5	inactive
